Results reported in article PMC6030175, “A senataxin-associated exonuclease SAN1 is required for resistance to DNA interstrand cross-links”.
Results are given in words; binding and its absence hold for the method and conditions named. In cells and extracts the contact can be indirect. For some assays here: Tags and fused reporters may be left off the sequences shown.

The chains behind the UniProt entries cited, without tags or fusion partners. Where a name states a change or a piece, a line headed by the entry shows the natural chain unless it says otherwise.
UniProt Q96EK7: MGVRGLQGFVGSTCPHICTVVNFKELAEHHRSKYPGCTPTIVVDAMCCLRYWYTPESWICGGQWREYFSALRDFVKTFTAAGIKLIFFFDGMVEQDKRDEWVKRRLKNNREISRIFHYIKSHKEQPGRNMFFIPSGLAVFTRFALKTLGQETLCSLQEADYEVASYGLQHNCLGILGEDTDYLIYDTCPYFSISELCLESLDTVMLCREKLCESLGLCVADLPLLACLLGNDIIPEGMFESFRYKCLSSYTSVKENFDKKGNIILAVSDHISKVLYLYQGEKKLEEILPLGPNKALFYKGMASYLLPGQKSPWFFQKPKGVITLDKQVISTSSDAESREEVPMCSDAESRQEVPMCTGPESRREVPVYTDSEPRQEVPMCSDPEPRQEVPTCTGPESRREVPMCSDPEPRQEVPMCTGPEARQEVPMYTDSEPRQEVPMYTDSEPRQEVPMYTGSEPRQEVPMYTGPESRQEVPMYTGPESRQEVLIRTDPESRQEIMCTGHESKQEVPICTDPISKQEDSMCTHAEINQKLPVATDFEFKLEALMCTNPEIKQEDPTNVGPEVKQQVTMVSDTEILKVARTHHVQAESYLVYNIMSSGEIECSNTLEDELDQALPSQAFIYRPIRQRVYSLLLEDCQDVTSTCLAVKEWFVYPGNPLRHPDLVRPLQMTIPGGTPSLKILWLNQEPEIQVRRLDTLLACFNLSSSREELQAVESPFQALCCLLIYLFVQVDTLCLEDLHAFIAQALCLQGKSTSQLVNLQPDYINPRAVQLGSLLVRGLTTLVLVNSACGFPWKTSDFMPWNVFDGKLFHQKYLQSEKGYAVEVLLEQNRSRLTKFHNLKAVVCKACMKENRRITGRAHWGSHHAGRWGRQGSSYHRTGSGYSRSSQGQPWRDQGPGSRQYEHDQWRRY
UniProt Q7Z333: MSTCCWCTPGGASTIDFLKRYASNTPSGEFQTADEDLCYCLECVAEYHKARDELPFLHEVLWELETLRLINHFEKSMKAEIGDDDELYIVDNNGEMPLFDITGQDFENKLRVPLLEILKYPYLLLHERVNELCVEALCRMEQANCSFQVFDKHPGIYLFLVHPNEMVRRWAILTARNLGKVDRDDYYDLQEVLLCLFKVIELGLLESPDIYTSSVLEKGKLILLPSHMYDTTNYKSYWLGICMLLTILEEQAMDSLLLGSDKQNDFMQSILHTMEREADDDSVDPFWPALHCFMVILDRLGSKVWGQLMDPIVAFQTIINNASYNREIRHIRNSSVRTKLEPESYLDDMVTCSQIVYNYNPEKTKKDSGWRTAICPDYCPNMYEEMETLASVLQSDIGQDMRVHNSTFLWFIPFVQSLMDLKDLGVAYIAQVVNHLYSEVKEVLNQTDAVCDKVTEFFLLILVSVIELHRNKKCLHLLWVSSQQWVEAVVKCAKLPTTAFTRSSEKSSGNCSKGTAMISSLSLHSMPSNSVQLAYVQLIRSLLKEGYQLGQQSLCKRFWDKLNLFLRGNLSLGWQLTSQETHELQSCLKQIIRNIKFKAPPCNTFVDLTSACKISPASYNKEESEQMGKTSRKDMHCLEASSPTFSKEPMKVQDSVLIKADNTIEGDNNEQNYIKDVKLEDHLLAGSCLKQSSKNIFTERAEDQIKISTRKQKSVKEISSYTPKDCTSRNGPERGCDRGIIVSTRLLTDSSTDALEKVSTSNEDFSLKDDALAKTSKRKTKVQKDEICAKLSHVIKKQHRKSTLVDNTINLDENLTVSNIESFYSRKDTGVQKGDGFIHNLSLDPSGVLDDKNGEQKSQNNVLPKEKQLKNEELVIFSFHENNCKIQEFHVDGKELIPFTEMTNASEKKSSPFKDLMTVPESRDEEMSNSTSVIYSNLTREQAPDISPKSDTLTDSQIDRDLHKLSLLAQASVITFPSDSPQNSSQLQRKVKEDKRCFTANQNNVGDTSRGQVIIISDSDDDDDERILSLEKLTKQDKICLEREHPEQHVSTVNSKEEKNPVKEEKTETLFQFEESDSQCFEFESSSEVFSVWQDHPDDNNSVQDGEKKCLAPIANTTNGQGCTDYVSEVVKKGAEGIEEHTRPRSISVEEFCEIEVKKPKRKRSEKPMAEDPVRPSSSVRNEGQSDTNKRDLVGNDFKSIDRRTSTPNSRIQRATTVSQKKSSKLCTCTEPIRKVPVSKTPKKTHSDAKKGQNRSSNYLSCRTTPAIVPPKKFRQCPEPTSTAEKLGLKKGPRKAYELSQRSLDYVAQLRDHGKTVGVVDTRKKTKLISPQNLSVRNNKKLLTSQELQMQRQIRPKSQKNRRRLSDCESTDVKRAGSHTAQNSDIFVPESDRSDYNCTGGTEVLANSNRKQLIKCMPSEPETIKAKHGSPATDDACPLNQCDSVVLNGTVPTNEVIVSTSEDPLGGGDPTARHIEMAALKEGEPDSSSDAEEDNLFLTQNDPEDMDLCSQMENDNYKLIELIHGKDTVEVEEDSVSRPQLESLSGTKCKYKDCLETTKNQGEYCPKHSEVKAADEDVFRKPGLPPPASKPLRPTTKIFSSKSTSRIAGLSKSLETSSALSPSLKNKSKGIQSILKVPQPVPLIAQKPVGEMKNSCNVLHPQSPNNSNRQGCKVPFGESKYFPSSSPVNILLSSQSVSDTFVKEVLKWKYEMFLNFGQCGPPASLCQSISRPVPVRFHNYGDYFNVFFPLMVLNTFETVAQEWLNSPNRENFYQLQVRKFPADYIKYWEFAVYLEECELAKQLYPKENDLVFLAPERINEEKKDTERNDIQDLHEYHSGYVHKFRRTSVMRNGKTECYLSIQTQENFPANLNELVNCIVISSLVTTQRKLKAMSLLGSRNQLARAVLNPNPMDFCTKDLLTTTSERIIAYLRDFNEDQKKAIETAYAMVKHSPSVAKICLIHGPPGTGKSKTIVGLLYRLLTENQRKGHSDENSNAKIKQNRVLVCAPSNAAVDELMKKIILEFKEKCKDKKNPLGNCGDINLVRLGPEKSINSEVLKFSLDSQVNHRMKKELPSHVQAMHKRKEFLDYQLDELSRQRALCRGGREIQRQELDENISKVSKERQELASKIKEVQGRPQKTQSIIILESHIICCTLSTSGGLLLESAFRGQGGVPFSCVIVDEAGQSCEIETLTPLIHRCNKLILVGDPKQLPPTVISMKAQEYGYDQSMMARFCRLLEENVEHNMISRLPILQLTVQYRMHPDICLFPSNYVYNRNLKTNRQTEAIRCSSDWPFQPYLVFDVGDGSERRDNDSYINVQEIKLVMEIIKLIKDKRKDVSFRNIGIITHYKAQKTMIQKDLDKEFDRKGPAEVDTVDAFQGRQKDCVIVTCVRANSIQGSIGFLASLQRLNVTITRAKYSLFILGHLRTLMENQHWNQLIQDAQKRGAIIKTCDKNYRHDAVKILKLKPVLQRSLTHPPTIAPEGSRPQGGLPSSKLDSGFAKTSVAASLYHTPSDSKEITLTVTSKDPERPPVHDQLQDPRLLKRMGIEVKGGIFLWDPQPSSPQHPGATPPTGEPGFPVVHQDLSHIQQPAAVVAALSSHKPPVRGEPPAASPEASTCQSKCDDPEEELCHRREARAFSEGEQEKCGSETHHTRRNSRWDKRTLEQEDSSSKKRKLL

B1: Myc-mSETX fragment (myc-SETX-SID fragment) (domain or fragment, UniProt A2AKX3 876-1103)
chain: DKLQIQEGRADDDLVSFTEVTDTLVKAPCEGHVKMVVESRDKEMRESTALTSNLVEGQVPHDSSKPLVAGRQIDLCNITLISQTTVIQFPSGLSKQNSFQLQKGDKRCLTANQNSAATCRGQVIVISDSDEEEDEDEDERSSSEENIKQSKACIGKDCSEHRSLAVNASVEKQLVKEEERYPVEFEDSESQVFEFESSSEVFSVWQDHKIDSKNSLQGEQKSYVTHVA

Tests used:
[1] = target: SAN1ΔRep-ssf (SAN1 lacking the central repeats region, Strep2-FLAG) (human) (UniProt Q96EK7); assay: co-IP; soluble nuclear fraction of HeLa SETX-FLAG-GFP cells expressing SAN1-ssf or SAN1ΔRep-ssf, +/- 1 μM MMC; SAN1 captured on Strep-Tactin beads, eluted with desthiobiotin; immunoblot
[2] = target: SAN1ΔRep-FLAG (SAN1 mutant lacking the central repeat region) (human) (UniProt Q96EK7); assay: co-IP; 293T cells co-transfected; lysis in 25 mM HEPES pH 7.4, 150 mM NaCl, 0.5% Triton-X 100; anti-FLAG M2 agarose 1 h at 4 °C; immunoblot for FLAG and Myc

Molecule | binding [1] | binding [2]
Senataxin-FLAG-GFP (full length SETX-Flag-GFP) (from UniProt Q7Z333 1-2677) | no binding | 
B1 |  | no binding
